Source: article PMC5131957
For part of these data: The comparison behind a weaker result is the experiment's own reference, which may not be listed here. The exact form of at least one protein or probe is not confirmed. For part of these data: At least one verdict rests on a figure or table, not on a statement of the authors.

Key:
[1] = target: p53T (last 30 aa, CTDBD) (human) (UniProt P04637); test: EMSA; conditions: weaker than TAT, EMSA: 5 mM Tris-HCl pH 8, 1 mM MgCl2, 0.01% Triton X-100, 50 mM KCl, on ice or 25 C, 30 min, pBSK/SmaI competitor 5-50 ng, recombinant protein, residues 363-393, label: 32P
[2] = target: p53CT (C-terminal segment: tetramerization domain + CTDBD) (human) (UniProt P04637); test: EMSA; conditions: weaker than TAT, EMSA: 5 mM Tris-HCl pH 8, 1 mM MgCl2, 0.01% Triton X-100, 50 mM KCl, on ice or 25 C, 30 min, pBSK/SmaI competitor 5-50 ng, recombinant protein, residues 320-393, label: 32P
p53 full length (human) [3] = target: p53 full length (human) (UniProt P04637); test: EMSA; conditions: EMSA: 5 mM Tris-HCl pH 8, 1 mM MgCl2, 0.01% Triton X-100, 50 mM KCl, on ice or 25 C, 30 min, recombinant protein, residues 1-393
p53 full length (human) [4] = target: p53 full length (human) (UniProt P04637); test: ELISA; conditions: DO1 antibody, 2 mM Mg2+; ELISA: 1x PBS, 2 mM MgCl2, temperature not stated; recombinant protein; residues 1-393; label: 3' biotin on LockB; folded or branched DNA
[5] = 1 mM Mg2+, 50 ng pBSK/SmaI competitor, weaker than TAT, pBSK/SmaI competitor 5-50 ng, label: 32P on lock strand, folded or branched DNA

Does “AAAAAAAAAAAAAAAAAAAAAAAAAAAAAAAAAAAAAAAAAAAAAAAAAA [(dA)50]” bind ([1]; single-stranded DNA)?
Result: binds more weakly

Does “GACGGTATCGATAAGAGACATGCCTAGACATGCCTCTTGATATCGAATTC (double strand) [CON]” bind [2]?
Result: binds more weakly

Does “GACGGTATCGATAAGGCATCATAGCGCATCATAGCCTTGATATCGAATTC / GAATTCGATATCAAGGCTATGATGCGCTATGAGGCCATATCGATACCGTC [NON]” bind (p53 full length (human) [3]; 1 mM Mg2+, 50 ng pBSK/SmaI competitor, pBSK/SmaI competitor …, label: 32P)?
Result: binds more weakly

Does “GGGGCCTTAGGTAAAAAAAAAAAAAAAATTTTTTTTTTTTTTTTTTGATGGTACCGCGG / CCGCGGTACCATTACCTAAGGCCCC [TA hairpin]” bind (p53 full length (human) [3]; [5])?
Result: binds more weakly

Does “GGGGCCTTAGGTACTGCTGCTGCTGCTGCTGCTGCTGCTGCTGCTGATGGTACCGCGG / CCGCGGTACCATTACCTAAGGCCCC [CTG hairpin]” bind (p53 full length (human) [3]; [5])?
Result: binds more weakly

For “GGGGCCTTAGGTACTGCTGCTGCTGCTGCTGCTGCTGCTGCTGCTGATGGTACCGCGG / CCGCGGTACCATTACCTAAGGCCCCCAAC [CTG hairpin, biotinylated]”, which Kd (p53 full length (human) [4]) is on record?
Its Kd is 1.88 nM.

Does “TTTTTTTTTTTTTTTTTTTTTTTTTTTTTTTTTTTTTTTTTTTTTTTTTT (double strand) [double-stranded TA, (dT)50.(dA)50]” bind [1]?
Result: binds more weakly

Does “TTTTTTTTTTTTTTTTTTTTTTTTTTTTTTTTTTTTTTTTTTTTTTTTTT / AAAAAAAAAAAAAAAAAAAAAAAAAAAAAAAAAAAAAAAAAAAAAAAAAA / TTTTTTTTTTTTTTTTTTTTTTTTTTTTTTTTTTTTTTTTTTTTTTTTTT [T.A.T triplex (dT)50.(dA)50.(dT)50]” bind (p53 full length (human) [3]; PAb421 antibody (aa 371-380), partial inhibition, pBSK/SmaI competitor 5-50 ng, label: 32P on (dA)50, folded or branched DNA)?
Result: binds more weakly

Does “TTTTTTTTTTTTTTTTTTTTTTTTTTTTTTTTTTTTTTTTTTTTTTTTTT [(dT)50]” bind ([2]; single-stranded DNA)?
Result: binds more weakly
